Results of single-concentration screens

Measurements from “University of Dundee, Small-Polar-MMV Screening Library” (2021), ChEMBL document CHEMBL3988442.

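Whole-cell growth test on Mycobacterium tuberculosis, read after 4 days in a medium based on cholesterol and the lipid DPPC; the read-out is not stated. Compounds at 50 µM. Higher reads as more growth inhibition (inferred: compounds with an IC50 in retests scored well above the rest). Of about 69,000 compounds tested this way, about 370 (0.54%) reached 50% or more in at least one test.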

Each number is a percent effect as filed. The controls that fix the scale are not given in the record; negative values are as filed. Compounds were drawn at random from those tested, without regard to their results. Two or more numbers in one place are separate tests of the same structure; such repeats can differ widely.

| # | Compound | percent effect |
|---|---|---|
| 1 | `[H][C@]12CN(C(=O)c3cnc(C)nc3)CC[C@@]1(O)CCN(C(=O)N(C)C)C2` | -15.07% |
| 2 | `Cc1ncnc2c1CCN(C(=O)CN(C)C)CC2.O=C(O)C(F)(F)F` | -7.663% |
| 3 | `Cn1ccc2ccc(C(=O)N3CCN(C(=O)OC(C)(C)C)CC3)cc21` | -11.32% |
| 4 | `[H][C@]12CN(c3ncccn3)CC[C@@]1(O)CCN(S(=O)(=O)N(C)C)C2` | -16.96% |
| 5 | `Cc1oc(C(=O)O)cc1S(=O)(=O)Nc1cccc(-n2nccc2C)c1` | -11.45% |
| 6 | `Cc1nc(C2CCCN(C(=O)c3ccc(OCC4CC4)nc3)C2)no1` (centres undefined) | -1.014% |
| 7 | `[H][C@@]12C[C@H](NC(=O)Cc3nc4nc(C)cc(C)n4n3)CN1CCN(C)C2` | -21.6% |
| 8 | `[H][C@]12CC[C@@]3(N=C(c4ccccc4)NC3=O)[C@@]1([H])CN(C(=O)c1ccoc1)C2` | -20.56% |
| 9 | `COc1ccccc1C1CCN(C(=O)c2ncccc2OC(C)C)C1` (centres undefined) | -18.32% |
| 10 | `CNC(=O)C1Cn2ccnc2C2(CCN(Cc3cccnc3)CC2)O1.O=C(O)C(F)(F)F.O=C(O)C(F)(F)F.O=C(O)C(F)(F)F` (centres undefined) | -16.89% |
| 11 | `CN(c1ncccc1CNC(=O)c1csnn1)C1CCCCC1` | -7.069% |
| 12 | `CC(=O)Nc1ccc(CN2CCOC2=O)cc1` | 0.1196% |
| 13 | `COc1ccc2cc(NC(=O)CCCNc3ncccn3)cnc2c1` | -13% |
| 14 | `CCn1cnnc1CNC(=O)N1CCN(CC(C)C)CC1` | -11.54% |
| 15 | `Cc1cc(NC(=O)CCN2CCn3c(nnc3C3CC3)C2)no1` | 7.965% |
| 16 | `CC1CCCCN1C(=O)c1coc(COc2cccc3cnccc23)n1` (centres undefined) | 42.34% and 56% |
| 17 | `Cc1oc(-c2cccc(F)c2F)nc1CN(C)CCC(C)(C)O` | -2.45% |
| 18 | `COCCn1ccc2cc(C(=O)NC3CCOC(C)(C)C3)ccc21` (centres undefined) | -4.002% |
| 19 | `Cc1n[nH]c2c1C(c1ccsc1)SCC(=O)N2` (centres undefined) | -5.427% |
| 20 | `CNC(=O)c1cccc(CNC2CCSc3c(Cl)cccc32)c1` (centres undefined) | 32.07% |
| 21 | `Cc1ccnc(OCC(=O)N2CCCC2)n1` | 11.22% |
| 22 | `Cn1cc(I)c(C(=O)NCCCn2cc(Br)cn2)n1` | -8.801% |
| 23 | `COCC(=O)N1CCN(C(=O)CCc2ccsc2)CC1` | -6.561% |
| 24 | `Cc1occc1C(=O)N1CCOCC2(CCN(Cc3nccs3)C2)C1.O=C(O)C(F)(F)F` (centres undefined) | -17.03% |
| 25 | `CN1CC(c2n[nH]c(=O)n2-c2cccc(Cl)c2)CC1=O` (centres undefined) | -12.66% |
| 26 | `O=C(c1ccccc1)C1CCN(c2cncc(-n3cccn3)n2)CC1` | 4.127% |
| 27 | `CN(Cc1ccco1)C(=O)CN1CCCCC1Cn1cncn1` (centres undefined) | -6.366% |
| 28 | `Cc1nn(CCC#N)c(C)c1CCC(=O)N(C)Cc1ccc(F)cc1F` | -24.03% |
| 29 | `Cc1c[nH]c(C(=O)N2CCCC2c2ccc(C(=O)N3CCSCC3)s2)n1` (centres undefined) | 0.4229% |
| 30 | `Cc1ccc(=O)n(CC2(O)CCN(Cc3cnc(N(C)C)nc3)CC2)n1` | -10.86% |
| 31 | `Cc1ccc(S(=O)(=O)N2CC(C)Oc3ncccc32)c(F)c1` (centres undefined) | -1.405% |
| 32 | `Cc1nc(C2CCN(C(=O)c3cc(C4CC4)[nH]n3)CC2)no1` | 6.855% |
| 33 | `O=C(C1CCCC1)N1CCCC(c2cccc(-n3ccnc3)n2)C1` (centres undefined) | -5.92% |
| 34 | `O=C(c1cccnc1Oc1ccccc1)N1CCCn2ncnc21` | -12.03% |
| 35 | `Cc1nccn1CC1CCCN1CCCc1nc(-c2cccs2)no1` (centres undefined) | 1.165% |
| 36 | `Cc1ccc2nc(C(=O)N3CC(n4nc(C)cc4C)C3)cn2c1` | 5.58% |
| 37 | `CN1CC=C(c2noc(CCC(=O)N3CCc4ccccc4C3)n2)CC1` | 0.8311% |
| 38 | `CN(C)c1nc2c(c(N3CCc4c(c(CO)nn4C)C3)n1)CCNC2` | -62.01% |
| 39 | `CC(C)(C)c1nnc(NCc2ccc(F)cc2)o1` | -3.44% |
| 40 | `Cc1cncc(C2CCCN(Cc3ccncc3)C2)n1` (centres undefined) | -24.11% |
| 41 | `CCCN1CCC(N(C)C(=O)c2cc(C)nc3cc(F)ccc23)CC1` | -3.977% |
| 42 | `Cc1ccc(F)c2c1CCCN2CC(=O)NC1CCS(=O)(=O)C1` (centres undefined) | 10.57% |
| 43 | `CCc1csc(CNC2CCN(Cc3ccccc3)C2)n1` (centres undefined) | 21.29% |
| 44 | `COCc1cc(CN(C)C(C(=O)O)c2cc(C)c(OC)c(C)c2)n[nH]1` (centres undefined) | -6.079% |
| 45 | `O=C(CCCc1ccccn1)N1CCCC(n2cccn2)C1` (centres undefined) | 7.944% |
| 46 | `CN(C)Cc1ccc(C(=O)N2CCCC(COc3ccc(F)cc3)C2)o1` (centres undefined) | -3.917% |
| 47 | `CCn1c(C2CCCN(Cc3cccc4cnccc34)C2)nn(C)c1=O` (centres undefined) | -5.004% |
| 48 | `Cc1nn(C)c(C)c1C1CCCN1C(=O)CCc1ccco1` (centres undefined) | 1.514% |
| 49 | `O=C(Cc1ccc2c(c1)OCCO2)NC1CCCC1` | -37.59% |
| 50 | `CCOc1ncccc1-c1cc2c(cc1C(N)=O)OCO2` | -6.887% |
| 51 | `CCc1nc(CN(C(C)=O)C2CCN(CCc3ccncc3)C2)no1` (centres undefined) | 7.829% |
| 52 | `CCCc1nc(C)cc(N2CCC3(CCC(=O)N(CCOC)C3)CC2)n1` | -8.039% |
| 53 | `O=C(c1ccc(-n2cnnn2)cc1)N1CCCC(n2ccnc2)C1` (centres undefined) | 8.187% |
| 54 | `CC(C)Cc1noc(CN2CCN(C(=O)c3ccccc3F)CC2)n1` | -28.02% |
| 55 | `Cc1nn(C)c(C)c1C(C)NC(=O)Nc1cccnc1N1CCCC1` (centres undefined) | -3.048% |
| 56 | `Cc1nc(C)n(CC2CCCN(Cc3cccnc3)C2)n1` (centres undefined) | 20.07% |
| 57 | `CCC[C@@H]1CN(C(=O)c2ccccc2-c2ncc[nH]2)C[C@H]1N(C)C` | -25.54% |
| 58 | `O=C(CN1CCCc2sccc2C1=O)NC1CCc2nccn2C1` (centres undefined) | -5.369% |

For reference, 6 entries once more:

{"compound": "Cc1cncc(C2CCCN(Cc3ccncc3)C2)n1", "stereo": "centres undefined", "percent effect": -24.11}
{"compound": "Cn1cc(I)c(C(=O)NCCCn2cc(Br)cn2)n1", "percent effect": -8.801}
{"compound": "CNC(=O)C1Cn2ccnc2C2(CCN(Cc3cccnc3)CC2)O1.O=C(O)C(F)(F)F.O=C(O)C(F)(F)F.O=C(O)C(F)(F)F", "stereo": "centres undefined", "percent effect": -16.89}
{"compound": "Cc1nccn1CC1CCCN1CCCc1nc(-c2cccs2)no1", "stereo": "centres undefined", "percent effect": 1.165}
{"compound": "CCCc1nc(C)cc(N2CCC3(CCC(=O)N(CCOC)C3)CC2)n1", "percent effect": -8.039}
{"compound": "Cc1nc(C2CCCN(C(=O)c3ccc(OCC4CC4)nc3)C2)no1", "stereo": "centres undefined", "percent effect": -1.014}